{"sequences": {"note": "Chains of the proteins cited; added tags and fusions are not shown.", "UniProt P53350, whole entry, looked up": "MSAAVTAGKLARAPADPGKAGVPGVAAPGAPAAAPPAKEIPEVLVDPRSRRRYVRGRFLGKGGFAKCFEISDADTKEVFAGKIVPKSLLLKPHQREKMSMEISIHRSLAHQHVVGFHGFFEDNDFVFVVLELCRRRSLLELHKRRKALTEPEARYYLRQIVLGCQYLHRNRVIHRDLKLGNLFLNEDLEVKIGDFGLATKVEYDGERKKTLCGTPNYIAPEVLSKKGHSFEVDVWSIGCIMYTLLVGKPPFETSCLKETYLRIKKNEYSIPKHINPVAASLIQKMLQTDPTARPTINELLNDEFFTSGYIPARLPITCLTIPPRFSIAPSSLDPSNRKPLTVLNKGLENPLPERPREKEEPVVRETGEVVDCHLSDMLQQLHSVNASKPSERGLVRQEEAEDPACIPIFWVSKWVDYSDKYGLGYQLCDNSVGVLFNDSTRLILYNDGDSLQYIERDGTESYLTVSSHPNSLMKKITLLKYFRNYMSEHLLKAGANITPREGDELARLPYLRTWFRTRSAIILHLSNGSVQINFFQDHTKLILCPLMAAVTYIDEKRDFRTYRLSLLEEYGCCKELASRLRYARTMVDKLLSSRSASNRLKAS"}, "source": "PubChem BioAssay AID720504", "about": "(National Center for Advancing Translational Sciences (NCATS), 2013)", "note": "Hit rate of the full screen: of about 360,000 compounds, about 10,000 (2.8%) were called active. The inconclusive results got no clear call from the source; some entries with a clear call stand among them for comparison. Calls come from the whole dose curve; as a rule, active = well fitted inhibition curve with a large enough effect; inconclusive = small, poorly fitted or top-dose-only effect; inactive = flat fitted curve, though single readings scatter. Potencies beside an inconclusive call are fits to weak or partial responses and may not hold up. % is set by controls: 0 for no effect and ±100 for the full control effect; potency is the fitted concentration of half-maximal effect."}
{"molecular_target": "Serine/threonine-protein kinase PLK1 (Homo sapiens) (UniProt P53350)", "experiment": "qHTS for Inhibitors of PLK1-PDB (polo-like kinase 1 - polo-box domain): Primary Screen; note: nearly all actives have a fitted effect of over 65% in size; for max response, negative = inhibition: series mostly up to about 57 µM", "settings": "Plk1 PBD binding of FITC phosphopeptide, fluorescence polarization"}
{"smiles": "O=C1C=CC(=O)c2c(O)c(N3CCN(CCOCCO)CC3)c(Br)c(O)c21", "Potency": "inconclusive: 2.99 µM [inhibitor, full curve]"}
{"smiles": "O=C(c1ccccc1)N1CC(COc2ccccc2)OC(c2cccnc2)O1", "note": "(stereo not given)", "Potency": "inconclusive: 26.7 µM [inhibitor, single point]"}
{"smiles": "CCn1c(Cc2cccs2)nnc1SCC(=O)c1ccc(C)cc1", "Potency": "active: 16.8 µM"}
{"smiles": "NC(=O)CSc1nnc(NC(=O)c2ccc(Br)o2)s1", "Potency": "inconclusive: 15 µM [inhibitor, partial curve]"}
{"smiles": "Cc1ccccc1-c1nnc(SCCC(=O)N2CCOCC2)o1", "Potency": "inconclusive: 37.7 µM [inhibitor, single point]"}
{"smiles": "Cc1cc(NC(=O)CSc2nc(C3CC3)nc3sc(C)c(C)c23)no1", "Potency": "inconclusive: 13.4 µM [inhibitor, partial curve]"}
{"smiles": "NC(=O)c1ccc(NS(=O)(=O)c2ccc(S(=O)(=O)N3CCCC3)cc2)cc1", "max response, negative = inhibition": "inactive: -5.63%"}
{"smiles": "CCOC(=O)C1(C)/C(=N/Nc2cccc(Cl)c2)C(=O)C(=O)N1c1ccccc1", "note": "(stereo not given)", "Potency": "inconclusive: 33.6 µM [inhibitor, single point]"}
{"smiles": "COc1cc(OC)cc(C(=O)NC(=S)NNC(=O)[C@H]2C[C@@H]2c2ccccc2)c1", "Potency": "inconclusive: 21.2 µM [inhibitor, partial curve]"}
{"smiles": "O=C(N/N=C/c1ccco1)c1cccc(N2Cc3ccccc3C2)c1", "Potency": "active: 26.7 µM"}
{"smiles": "CCc1cccc(NC(=O)CCS(=O)(=O)c2ccc3c(c2)NC(=O)CO3)c1", "Potency": "active: 26.7 µM"}
{"smiles": "COc1ccc(C(=O)NCC(=O)NCC2COc3ccccc3O2)cc1", "note": "(stereo not given)", "max response, negative = inhibition": "inactive: -7.78%"}
{"smiles": "CCN(CC)c1ccc(C=C2C(=O)OC(c3ccccc3)OC2=O)cc1", "note": "(stereo not given)", "Potency": "inconclusive: 0.474 µM [inhibitor, full curve, poor fit]"}
{"smiles": "COc1cc2c(cc1OC)C1=C(C#N)COCN1CC2", "Potency": "inconclusive: 21.2 µM [inhibitor, single point]"}
{"smiles": "Cc1ccc(NS(=O)(=O)c2ccc3c(c2)n(C)c(=O)c(=O)n3C)c(C)c1", "max response, negative = inhibition": "inconclusive: -31.4% [inhibitor]"}
{"smiles": "CC(C)n1c(=S)[nH]c2cc(Cl)ccc21", "Potency": "inconclusive: 29.9 µM [inhibitor, partial curve]"}
{"smiles": "CSc1ccccc1NC(=O)c1noc(C)c1[N+](=O)[O-]", "Potency": "inconclusive: 15 µM [inhibitor, partial curve]"}
{"smiles": "COc1cc(C2Nc3cccc4cccc(c34)N2)ccc1OC(C)=O", "Potency": "active: 26.7 µM"}
{"smiles": "Cc1ccc(C2=Nn3c(COc4ccc(Cl)cc4)nnc3SC2CC(=O)O)cc1", "note": "(stereo not given)", "Potency": "inconclusive: 33.6 µM [inhibitor, single point]"}
{"smiles": "O=C(CS(=O)(=O)c1ccccc1)c1cc2cc(F)ccc2oc1=O", "Potency": "active: 15 µM"}
{"smiles": "O=C(c1ccco1)N1CCN(C(c2ccccc2Cl)c2nnnn2Cc2ccco2)CC1", "note": "(stereo not given)", "Potency": "inconclusive: 26.7 µM [inhibitor, partial curve]"}
{"smiles": "CCC1CCCCN1C(=O)CCCOc1ccccc1", "note": "(stereo not given)", "Potency": "active: 3.36 µM"}
{"smiles": "Cc1ccc(C2=NNC(=Nc3ccc(F)cc3)SC2)cc1", "Potency": "inconclusive: 23.8 µM [inhibitor, partial curve]"}
{"smiles": "CCn1cnc2c1c(=O)n(Cc1cccc(Br)c1)c(=O)n2Cc1ccccc1", "Potency": "inconclusive: 26.7 µM [inhibitor, single point]"}
{"smiles": "Cc1cc(=O)oc2cc(NC(=O)c3ccccc3OC(F)F)ccc12", "Potency": "inconclusive: 33.6 µM [inhibitor, single point]"}
{"smiles": "CC(Cc1cnccn1)NC(=O)c1cc(COc2ccc(F)cc2F)on1", "note": "(stereo not given)", "Potency": "inconclusive: 16.8 µM [inhibitor, partial curve]"}
{"smiles": "COc1ccc(-c2nc(SCC(=O)N3CCCC3)n[nH]2)cc1", "max response, negative = inhibition": "inactive: -1.92%"}
{"smiles": "COCCCN(C(=S)Nc1ccc(C)cc1Cl)C(C)c1ccncc1", "note": "(stereo not given)", "max response, negative = inhibition": "inactive: -5.15%"}
{"smiles": "O=C1NC(=O)/C(=C\\c2ccccc2OCc2ccccc2)S1", "Potency": "inconclusive: 23.8 µM [inhibitor, single point]"}
{"smiles": "CCCc1c(C(=O)OCC)[nH]c2c1C(=O)CCC2", "max response, negative = inhibition": "inconclusive: -38.8% [inhibitor]"}
{"smiles": "O=C(CN1C(=O)C(=O)N(Cc2ccco2)C1=O)c1c[nH]c2ccccc12", "Potency": "active: 26.7 µM"}
{"smiles": "O=C(Nc1ccccn1)c1ccc2c(c1)OCCO2", "max response, negative = inhibition": "inactive: -9%"}
{"smiles": "CCCCN(C(=O)c1c(C)noc1C)c1c(N)n(CCCC)c(=O)[nH]c1=O", "max response, negative = inhibition": "inactive: -6.24%"}
{"smiles": "C=CC(=O)N1C/C(=C/c2ccc(F)cc2)C(=O)/C(=C\\c2ccc(F)cc2)C1", "Potency": "inconclusive: 26.7 µM [inhibitor, partial curve]"}
{"smiles": "C/C=C/c1ccc2c(c1)O[C@H](CN(C)CC1CCOCC1)[C@@H](C)CN([C@H](C)CO)S2(=O)=O", "max response, negative = inhibition": "inactive: 0.72%"}
{"smiles": "O=C1CCCC2=C1C(c1ccc(O)c(O)c1)Nc1ccc3ncccc3c12", "note": "(stereo not given)", "Potency": "inconclusive: 33.6 µM [inhibitor, single point]"}
{"smiles": "NS(=O)(=O)c1ccc(CNC(=S)NCc2ccc(Cl)cc2)cc1", "max response, negative = inhibition": "inactive: -17.4%"}
{"smiles": "COc1cc2[nH]c(=O)c(C(=O)NCCCN3CCOCC3)c(O)c2cc1OC", "max response, negative = inhibition": "inconclusive: -38.4% [inhibitor]"}
{"smiles": "NC(=O)c1ccsc1NC(=O)COC(=O)CNC(=O)c1ccc(F)cc1", "max response, negative = inhibition": "inactive: -10.6%"}
{"smiles": "CC(C)[C@H](NC(N)=O)C(=O)Nc1ccc(OCc2ccccc2)cc1", "Potency": "inconclusive: 33.6 µM [inhibitor, single point]"}
{"smiles": "CCOc1ccccc1N(CC(=O)N/N=C(\\C)c1cccc(Br)c1)S(C)(=O)=O", "Potency": "inconclusive: 29.9 µM [inhibitor, single point]"}
{"smiles": "CC(C)NC(=O)Cn1nnc(-c2cccc(NC(=O)c3ccccc3F)c2)n1", "Potency": "inconclusive: 37.7 µM [inhibitor, single point]"}
{"smiles": "CCOC(=O)c1[nH]c(=O)[nH]c1CSc1ccccn1", "Potency": "inconclusive: 37.7 µM [inhibitor, single point]"}
{"smiles": "CC(=O)Nc1ccc(Nc2nc(C)c([N+](=O)[O-])c(Nc3ccc(NC(C)=O)cc3)n2)cc1", "max response, negative = inhibition": "inactive: 3.36%"}
{"smiles": "CC(C)c1c(C(=O)N/N=C/c2ccc3c(c2)OCO3)nnn1-c1nonc1N", "Potency": "inconclusive: 26.7 µM [inhibitor, partial curve]"}
